## Percent effect of library compounds

By UniProt entry, the sequences of proteins in these tests, tags left out. Residues count along the entry.
UniProt A4I591, 1-473: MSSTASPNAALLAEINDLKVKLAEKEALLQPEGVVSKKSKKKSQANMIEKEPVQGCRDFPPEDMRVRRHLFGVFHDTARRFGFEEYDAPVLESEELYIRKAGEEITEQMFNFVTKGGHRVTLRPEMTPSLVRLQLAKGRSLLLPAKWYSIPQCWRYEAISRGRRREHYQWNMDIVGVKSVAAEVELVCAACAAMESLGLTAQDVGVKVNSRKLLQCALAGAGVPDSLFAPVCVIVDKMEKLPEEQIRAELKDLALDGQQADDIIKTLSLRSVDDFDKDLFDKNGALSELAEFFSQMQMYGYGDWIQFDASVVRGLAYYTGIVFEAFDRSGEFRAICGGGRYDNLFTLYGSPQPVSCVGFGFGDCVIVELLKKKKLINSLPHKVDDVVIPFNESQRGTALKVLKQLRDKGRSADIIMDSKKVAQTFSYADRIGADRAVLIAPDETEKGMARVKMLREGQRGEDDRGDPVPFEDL
UniProt P9WNZ1, whole entry: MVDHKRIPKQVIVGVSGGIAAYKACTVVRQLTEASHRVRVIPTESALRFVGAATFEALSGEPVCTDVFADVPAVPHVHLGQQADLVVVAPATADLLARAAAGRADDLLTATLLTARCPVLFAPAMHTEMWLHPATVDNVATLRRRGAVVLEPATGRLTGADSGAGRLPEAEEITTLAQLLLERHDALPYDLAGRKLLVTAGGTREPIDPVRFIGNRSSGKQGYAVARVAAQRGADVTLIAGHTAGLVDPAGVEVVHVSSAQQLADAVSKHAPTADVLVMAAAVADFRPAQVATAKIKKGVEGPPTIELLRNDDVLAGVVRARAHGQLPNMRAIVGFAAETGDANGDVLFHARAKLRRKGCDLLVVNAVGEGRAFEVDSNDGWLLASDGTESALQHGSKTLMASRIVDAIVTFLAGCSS

LiHisRS: 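Histidine-tRNA ligase, Leishmania infantum (UniProt A4I591). Enzyme assay of histidyl-tRNA synthetase; the read-out is not stated. Tested at 30 µM. Direction is inferred from retests: higher values go with stronger inhibition. The assay is labelled LdHisRS but filed under L. infantum. Of about 69,000 compounds tested this way, about 410 (0.6%) reached 50% or more in at least one test.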
Leishmania in macrophages: 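Cell assay of Leishmania donovani living inside macrophages; the read-out is not stated. Tested at 30 µM. Direction is inferred from retests: higher values go with stronger inhibition. Size under these conditions: about 69,000 compounds, about 1,000 of them at 50% or above in at least one test.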
CoaBC: 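Coenzyme A biosynthesis protein CoaBC, Mycobacterium tuberculosis (UniProt P9WNZ1). Enzyme assay of CoaBC with a phosphate dye (Biomol Green) read at 650 nm. Tested at 30 µM. Higher reads as stronger inhibition, judged from the few compounds that gave an IC50. Most strong results did not repeat in a second test. Size under these conditions: about 67,000 compounds, about 40 of them at 50% or above in at least one test.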

Each number is a percent effect as filed. The record does not define 0% and 100%; most values in the screen are far below 50% and negative numbers occur (in some assays of this library far below -100). Compounds were drawn at random from those tested, without regard to their results. A dash means the value is not listed here; it may have been measured.

SMILES	LiHisRS	Leishmania in macrophages	CoaBC
CCCC(O)CN1CC(C)(C)CN(C(=O)c2ccccc2)CC1=O (centres undefined)	10.31	24	-0.6135
CCC(C)c1csc(NC(=O)c2sc(-c3nnc[nH]3)nc2C)n1 (centres undefined)	11.11	32.74	3.65
CN1C(=O)C2(NC(=O)c3ccccc3O2)c2ccccc21 (centres undefined)	14.58	34.03	-1.611
CC(C)(C)c1nc(CNC2CCN(S(C)(=O)=O)CC2)cs1	18.37	15.93	-0.2296
CC(=O)N[C@@H]1CN(Cc2nccn2C)C[C@H]1c1ccc(C)cc1	8.065	10.92	-1.33
Cc1csc(C(Cc2ccsc2)NC(=O)c2cc(=O)n(C)c(=O)n2C)n1 (centres undefined)	5.674	19.37	7.692
Cc1ccc(N2CCCN(C(=O)c3n[nH]c4c3CCC4)CC2)nn1	9.375	3.524	9.375
O=C(O)C(F)(F)F.[H][C@@]12CN(Cc3ccsc3)CCC[C@]1(C(=O)O)CN(c1ncccn1)C2	-	17.67	-
Cn1cc(C(=O)N2CCCC(n3cccn3)C2)c2ccccc21 (centres undefined)	17.57	-7.53	6.128
CCc1[nH]ncc1C(=O)N1CCCC(n2cc(C)cn2)C1 (centres undefined)	-16.07	-27.85	-0.9091
COc1cc(N2CCC3(CCCN(Cc4ccccn4)C3)C2)ncn1.O=C(O)C(F)(F)F (centres undefined)	-	18.93	-
Cc1nccc(-c2cccc(NCC(=O)N3CCNC3=O)c2)n1	31.82	20.58	-11.19
CC(C(=O)N1CCCN(c2ncccc2C#N)CC1)n1ccnc1 (centres undefined)	13.64	-12.76	-8.18
Cc1cc2cccc(C(=O)N3CC[C@](C)(O)[C@H](C)C3)c2o1	2.5	-16.16	3.106
O=C(CCOc1ccc(F)cc1)N1CCCC1Cn1cccn1 (centres undefined)	11.61	30.39	6.258
COc1ccc(C(=O)N2CCN(C(=O)c3csc(C(C)C)n3)CC2)cc1	19.78	-2.236	1.341
CN(Cc1cccnc1)Cc1cn2c(n1)CN(C1CCOCC1)CC2	8.333	-3.497	3.951
NC(=O)N1CC[C@@H]2O[C@H](COCC(=O)N3CCCC3)CC[C@@H]21	14.52	-	0.1233
CN(Cc1cc(=O)c(O)co1)C1CCN(c2ccc(F)cc2)CC1	13.33	11.06	5.854
Cc1nn(C)c(Cl)c1C1CCCN1CC(=O)NC1CCCC1 (centres undefined)	18.58	6.642	-0.9346
CCc1nnsc1C(=O)N1CCCC1c1c(C)nn(C)c1OC (centres undefined)	-1.695	-6.961	1.312
Clc1ccccc1Cc1noc(CN2CCCC(CN3CCCC3)C2)n1 (centres undefined)	20	13.64	8.883
CCN(CC)Cc1cnc2n1CCN(Cc1c(C)noc1C)CC2	9.244	-	-0.4878
COC(=O)CCCNC(=O)N1CCc2c(F)ccc(F)c2C1	16.44	-79.62	13.94
CN(C)Cc1cnc2n1CCN(Cc1ccsc1)CC2	15.24	-	4.516
CN(C)CCC1CCN(c2cc(N3CCCC3CO)ncn2)CC1 (centres undefined)	-4.145	-10.02	0.3822
CCN(CC(=O)NC)S(=O)(=O)N1CCCCC1	21.21	15.05	2.959
Cc1ccc2cccc(C(=O)N3CCN(c4cccnn4)CC3)c2n1	3.306	31.38	1.512
COc1ccccc1C(=O)Nc1c(F)c(C(=O)NC2CCCC2)nn1C	23.08	7.495	-2.41
CC(C)c1noc(-c2ccc(NC(=O)NCC(O)C(C)C)cc2)n1 (centres undefined)	19.28	-32.45	2.913
CN(C)c1ncc(CN2CCC(c3nnsc3S(C)(=O)=O)CC2)cn1	11.11	39.16	2.5
Cc1nc(C)c(C(=O)N2CCCc3c(F)cccc32)o1	15.56	-14.41	-4.623
CC(=O)N1CCOCC2(CN(Cc3ccccn3)CCO2)C1.O=C(O)C(F)(F)F.O=C(O)C(F)(F)F (centres undefined)	-	22.53	-
CC(C)N(Cc1nc(-c2cccs2)no1)CC1CCC(=O)N1 (centres undefined)	-3.279	0.651	0.6494
COc1ccc(-c2cc(CNc3ncnc4c3CCNCC4)no2)cc1	19.05	66.16	-1.699
CC1CN(C)CCN1CC(=O)NCCOc1ccc2c(c1)OCO2 (centres undefined)	-1.835	13.17	5.355
CCc1ccc2ncn(Cc3ncc[nH]3)c(=O)c2c1	8.434	-46.17	4.893
Cc1cn2nc(N3CCN(Cc4cc(C)on4)CC3)sc2n1	16.52	26.96	1.145

Some entries from above, unchanged:

| SMILES | LiHisRS | Leishmania in macrophages | CoaBC |
|---|---|---|---|
| `CC(=O)N1CCOCC2(CN(Cc3ccccn3)CCO2)C1.O=C(O)C(F)(F)F.O=C(O)C(F)(F)F` (centres undefined) | - | 22.53 | - |
| `CC(C(=O)N1CCCN(c2ncccc2C#N)CC1)n1ccnc1` (centres undefined) | 13.64 | -12.76 | -8.18 |

Measurements from “University of Dundee, Small-Polar-MMV Screening Library” (2021), ChEMBL document CHEMBL3988442.